Laboratory results reported in patent US20090186949A1, “Method for Treating Endothelial and Epithelial Cell Disorders by Administering High Molecular Weight PEG-Like Compounds” (THE UNIVERSITY OF CHICAGO, priority 2006, published 2009).
These are yes or no findings as the source states them, for the method shown. Some results given as binding are weak or reduced against the parent protein; the word gives no strength.

Amino acid sequences for entries named in this document (tags omitted). Residues count along the entry.
UniProt P01579, residues 24-166: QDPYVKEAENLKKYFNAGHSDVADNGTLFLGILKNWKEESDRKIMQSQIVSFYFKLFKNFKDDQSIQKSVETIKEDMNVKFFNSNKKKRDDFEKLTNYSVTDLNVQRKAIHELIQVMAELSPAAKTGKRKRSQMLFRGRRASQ

Molecular target: T1, P. aeruginosa outer membrane porin OprF (outer membrane protein F) (Pseudomonas aeruginosa (strain PAO1)) (UniProt P13794)
T1 sequence: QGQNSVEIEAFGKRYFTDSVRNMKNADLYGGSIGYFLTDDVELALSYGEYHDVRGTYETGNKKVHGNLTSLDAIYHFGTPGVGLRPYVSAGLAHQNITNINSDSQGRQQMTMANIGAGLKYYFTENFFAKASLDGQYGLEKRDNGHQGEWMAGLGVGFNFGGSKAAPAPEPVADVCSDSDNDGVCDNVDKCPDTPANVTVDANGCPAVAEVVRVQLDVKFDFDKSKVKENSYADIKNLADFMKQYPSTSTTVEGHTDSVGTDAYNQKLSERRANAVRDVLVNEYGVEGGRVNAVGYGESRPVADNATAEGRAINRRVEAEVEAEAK
Assay: sandwich ELISA, anti-OprF antibody coated, biotin-labeled anti-IFN-γ antibody

Q: How did the binding turn out when “recombinant human IFN-γ (rH IFN-γ) (from UniProt P01579 24-166) (ligand)” was run?
A: binds
